Test results as given in ChEMBL document CHEMBL1126858, “Synthesis of (R,S)-trans-8-hydroxy-2-[N-n-propyl-N-(3'-iodo-2'-propenyl)amino]tetral in (trans-8-OH-PIPAT): a new 5-HT1A receptor ligand” (J Med Chem, 1993).
pKi: −log10 of the molar value.

Biological target: T1, 5-hydroxytryptamine receptor 1A (Rattus norvegicus, UniProt P19327)
T1 sequence (P19327 whole entry): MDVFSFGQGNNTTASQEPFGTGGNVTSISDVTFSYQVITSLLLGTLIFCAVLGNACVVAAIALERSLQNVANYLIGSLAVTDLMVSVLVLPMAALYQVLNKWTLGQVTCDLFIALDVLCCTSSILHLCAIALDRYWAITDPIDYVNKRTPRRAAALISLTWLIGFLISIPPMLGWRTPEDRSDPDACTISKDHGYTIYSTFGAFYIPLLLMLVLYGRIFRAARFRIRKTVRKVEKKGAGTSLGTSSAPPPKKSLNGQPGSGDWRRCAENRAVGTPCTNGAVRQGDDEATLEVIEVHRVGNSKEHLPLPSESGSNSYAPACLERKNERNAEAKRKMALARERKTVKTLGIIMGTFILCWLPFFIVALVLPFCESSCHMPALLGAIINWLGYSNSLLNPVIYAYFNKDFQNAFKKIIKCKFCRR
Test: Binding affinity towards 5-hydroxytryptamine 1A receptor by the displacement of [125I]trans-8-OH-PIPAT in membrane homogenates of hippocampal tissue of rat brain
Assay type: tissue-based, Hippocampus

pKi: 6.95
Compound: CC(C)NCC(O)COc1cccc2ccccc12 (racemic) [PROPRANOLOL]
